Values from PubChem BioAssay AID1259308 (NCATS, 2017).
In all, the deposit lists about 59,000 reagents; shown is a part drawn at random. About 1,510 of all reagents (2.6%) were called active. 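Calls use total luciferase alone and ignore viability, so some active siRNAs may act by altering cell number.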 A number with no mark means an inactive call. The numbers tell different reagents against one gene apart.

- Purpose: 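Knock-downs that increase output of a recombinant reporter protein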 (primary screen)
- Cell system: human HEK293 embryonic kidney cells stably expressing firefly luciferase (HEK-CMV-Luc2-Hygro)
- Reagent: single siRNA against human genes, 0.8 pmol siRNA per well
- Timing: 72 h
- Measured: 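Reporter luminescence and viable-cell signal on separate replicate plates, given as percent of non-targeting control and median/MAD z-scores, plus per-cell luciferase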
- Scale: total luciferase, z-score and total luciferase, % of control: higher = more reporter protein produced; luciferase per cell, z-score: higher = more reporter output per viable cell; viable cells, % of control: higher = more viable cells
- Call rule: 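An siRNA counts as active if its total luciferase robust z-score exceeds 3; genes with two or more such siRNAs out of three were retested with fresh siRNAs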
- Calls: active = raised luciferase; inactive = no rise

gene | reagent | total luciferase, z-score | total luciferase, % of control | luciferase per cell, z-score | viable cells, % of control
PAMR1 | 1 | 0.587 | 93.6 | 0.213 | 98.8
PAMR1 | 2 | -0.686 | 68.2 | -0.0668 | 77.6
PAMR1 | 3 | -0.415 | 73.6 | 0.314 | 75.7
POLR2A | 1 | -3.93 | 3.71 | -6.41 | 22.4
POLR2A | 2 | -3.26 | 17.1 | -1.7 | 29.8
POLR2A | 3 | -1.74 | 47.3 | -1.24 | 73.2
FKRP | 1 | 1.95 | 121 | 1.14 | 99.9
FKRP | 2 | 1.29 | 108 | 0.34 | 110
FKRP | 3 | -1.13 | 59.4 | -1.44 | 96.9
ZRANB3 | 1 | 0.906 | 99.9 | 0.439 | 99.5
ZRANB3 | 2 | -0.197 | 78 | -0.587 | 102
ZRANB3 | 3 | -0.424 | 73.5 | -0.649 | 97.4
ASXL2 | 1 | 0.74 | 96.6 | 0.622 | 91.6
ASXL2 | 2 | 1.03 | 102 | 0.144 | 110
ASXL2 | 3 | -0.207 | 77.8 | -0.123 | 89.8
PNPLA6 | 1 | 0.39 | 89.6 | -0.107 | 103
PNPLA6 | 2 | 2.94 | 140 | 1.76 | 98.8
PNPLA6 | 3 | 2.82 | 138 | 2.19 | 86.7
SPIDR | 1 | 0.0252 | 82.4 | -0.437 | 103
SPIDR | 2 | -1.18 | 58.5 | -1.04 | 85.9
SPIDR | 3 | 0.719 | 96.2 | 0.861 | 85.7
TMEM144 | 1 | -0.702 | 67.9 | -0.728 | 91.9
TMEM144 | 2 | 1.78 | 117 | 1.2 | 95.5
TMEM144 | 3 | -0.491 | 72.1 | -0.726 | 97.6
